Test system: T1, AfiL
T1 construct: native, purified from sponge tissue (ammonium sulfate, Sepharose 4B, lactose elution); 70 kDa disulfide-linked dimer, ~30 kDa subunits; internal stretch […]
Assay: hemagglutination inhibition, rabbit erythrocytes
Assay type: cell-based, Aplysina fistularis
Details: TBS
From the text: hemagglutination inhibition, rabbit erythrocytes on AfiL

Row | SMILES | Minimum Inhibitory Concentration (MIC) [mM] | Minimum Inhibitory Concentration (MIC) (anomer of this row not stated (methods list α-D-lactose and β-D-lactose)) [mM]
1 | O=[N+]([O-])c1ccc(O[C@H]2O[C@H](CO)[C@H](O)[C@H](O)[C@H]2O)cc1 [4-nitrophenyl-α-D-galactoside] | 12.5 | 
2 | OC[C@H]1O[C@@H](O[C@@H]2[C@@H](CO)OC(O)(CO)[C@H]2O)[C@H](O)[C@@H](O)[C@H]1O (stereo partly drawn) [D-lactulose] | 25 | 
3 | OC[C@H]1O[C@@H](O[C@H]2[C@H](O)[C@@H](O)[C@@H](O)O[C@@H]2CO)[C@H](O)[C@@H](O)[C@H]1O [α-D-lactose] | 12.5 | 
4 | OC[C@H]1O[C@@H](O[C@H]2[C@H](O)[C@@H](O)C(O)O[C@@H]2CO)[C@H](O)[C@@H](O)[C@H]1O (stereo partly drawn) [D-lactose] |  | 12.5
5 | O=[N+]([O-])c1ccc(O[C@@H]2O[C@H](CO)[C@H](O)[C@H](O)[C@H]2O)cc1 [4-nitrophenyl-β-D-galactoside] | 12.5 | 

Source: publication PMC12195231, “Afil, a Lectin from Aplysina fistularis, Exhibits Antibiofilm and Synergistic Antibacterial Activity Against Resistant Bacteria” (Microorganisms, 2025)
